Laboratory results reported in article PMC11751086.
Results are given in words; binding and its absence hold for the method and conditions named. In cells and extracts the contact can be indirect. Some results given as binding are weak or reduced against the parent protein; the word gives no strength.

The chains behind the UniProt entries cited, without tags or fusion partners. Where a name states a change or a piece, a line headed by the entry shows the natural chain unless it says otherwise.
UniProt P10275: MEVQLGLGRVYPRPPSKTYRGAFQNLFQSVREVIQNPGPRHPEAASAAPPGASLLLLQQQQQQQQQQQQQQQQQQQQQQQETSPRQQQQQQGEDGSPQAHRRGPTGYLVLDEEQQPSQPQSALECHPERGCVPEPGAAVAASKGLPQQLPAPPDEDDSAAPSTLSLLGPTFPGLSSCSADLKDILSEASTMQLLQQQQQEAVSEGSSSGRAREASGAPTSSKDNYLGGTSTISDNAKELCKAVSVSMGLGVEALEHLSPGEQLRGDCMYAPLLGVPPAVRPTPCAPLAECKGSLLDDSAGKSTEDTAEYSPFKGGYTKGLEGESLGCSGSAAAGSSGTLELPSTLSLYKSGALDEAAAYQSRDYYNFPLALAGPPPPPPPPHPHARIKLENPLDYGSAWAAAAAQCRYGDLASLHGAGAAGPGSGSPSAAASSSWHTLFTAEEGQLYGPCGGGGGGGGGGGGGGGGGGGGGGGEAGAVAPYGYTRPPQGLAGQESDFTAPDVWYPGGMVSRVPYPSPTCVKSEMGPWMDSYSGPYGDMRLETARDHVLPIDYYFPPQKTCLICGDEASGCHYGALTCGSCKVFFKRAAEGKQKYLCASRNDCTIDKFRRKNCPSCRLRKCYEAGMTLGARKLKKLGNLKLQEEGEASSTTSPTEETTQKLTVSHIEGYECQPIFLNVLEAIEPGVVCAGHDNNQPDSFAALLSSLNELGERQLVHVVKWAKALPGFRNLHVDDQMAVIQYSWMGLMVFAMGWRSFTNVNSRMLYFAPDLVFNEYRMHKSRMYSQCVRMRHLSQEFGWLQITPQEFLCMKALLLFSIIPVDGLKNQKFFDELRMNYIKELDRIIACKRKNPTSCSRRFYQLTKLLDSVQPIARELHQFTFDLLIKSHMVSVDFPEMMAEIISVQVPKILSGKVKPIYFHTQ
UniProt P05556: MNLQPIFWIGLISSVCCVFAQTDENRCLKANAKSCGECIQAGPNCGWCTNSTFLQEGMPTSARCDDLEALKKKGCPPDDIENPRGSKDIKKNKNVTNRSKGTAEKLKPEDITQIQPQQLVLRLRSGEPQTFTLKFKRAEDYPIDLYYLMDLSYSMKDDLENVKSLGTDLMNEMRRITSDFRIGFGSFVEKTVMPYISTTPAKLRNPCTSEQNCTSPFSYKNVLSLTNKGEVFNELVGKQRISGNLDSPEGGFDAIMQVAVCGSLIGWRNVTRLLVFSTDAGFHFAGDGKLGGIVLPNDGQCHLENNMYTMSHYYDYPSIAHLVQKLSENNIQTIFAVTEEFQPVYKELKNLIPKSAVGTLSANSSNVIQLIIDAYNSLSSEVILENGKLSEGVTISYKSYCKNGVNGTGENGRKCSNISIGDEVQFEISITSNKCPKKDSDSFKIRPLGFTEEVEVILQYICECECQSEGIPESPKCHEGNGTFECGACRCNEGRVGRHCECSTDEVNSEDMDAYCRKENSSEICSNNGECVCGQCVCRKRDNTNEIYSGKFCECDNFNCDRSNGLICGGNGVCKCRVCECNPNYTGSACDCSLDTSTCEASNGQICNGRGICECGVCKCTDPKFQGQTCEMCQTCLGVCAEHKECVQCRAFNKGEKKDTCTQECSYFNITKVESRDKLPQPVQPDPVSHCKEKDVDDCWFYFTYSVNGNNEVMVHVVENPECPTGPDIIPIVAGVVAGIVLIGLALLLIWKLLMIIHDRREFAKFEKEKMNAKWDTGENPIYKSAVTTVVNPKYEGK

Molecular target: androgen receptor (human (endogenous in AMM16)) (UniProt P10275)
Assay: co-IP; AMM16 cells unchallenged or challenged for 20 min with 10 nM R1881, in the absence or presence of bicalutamide; lysate proteins immune-precipitated with anti-AR or control (ctrl IgG) antibodies; co-precipitated proteins revealed by WB

## β1 integrin (from UniProt P05556 21-798) (receptor)
  binding: binds
